Test results as given in patent US20030140381.

Chains of the proteins cited; added tags and fusions are not shown. Chains listed by the source or under a name are the forms on record and can include a tag or linker.
ZmABI4 (maize ABI4, AP2-domain transcription factor) (Zea mays), one chain, as listed by the source: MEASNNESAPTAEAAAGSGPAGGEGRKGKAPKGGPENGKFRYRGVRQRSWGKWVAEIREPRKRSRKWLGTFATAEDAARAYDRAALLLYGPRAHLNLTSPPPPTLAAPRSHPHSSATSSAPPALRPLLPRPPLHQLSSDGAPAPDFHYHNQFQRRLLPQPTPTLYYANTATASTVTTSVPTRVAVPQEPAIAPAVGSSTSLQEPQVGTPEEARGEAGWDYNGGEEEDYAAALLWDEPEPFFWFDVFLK

Test system: ZmABI4 (maize ABI4, AP2-domain transcription factor) (Zea mays)
Assay: EMSA
Conditions: purified recombinant protein

Sequence: AGGAGTAATCCTAGTACAGTAGTACTACGTAGTAAAAATCTGTTGGACGATCGATCCAAGTGAAGCAGTGCATCAAAGAACGCTGCACACATCGATCTCGATCCTGTCCCTGCATGCATGCACGCACCGAGCAACGAAGCGCTGCACACAATGACACAAGCCAGTAAGTCAGAAGTCGATTGCTCCATCAACCGTATACTAGCTTAATTCCGCAATGACTCCGATGATCTACATGCTGGATTCCGCAATGACTCCGATGATCTACAGCATGCATGGCACACTCCCCCGGCCTCTACCACACCAACCAACAAGAATCTGGCTTTTTAAACTAGGTGAGAAAGATTCAAACACACCCGTTTTTATACGTTTTTGCAAAATTCTGAAAAAACTAGAAAACTGTTGATAGTAATTTTTGCCAGTTTCTCATAATCCAAAAAGAAACAAATAAAATCATTTACTGACACCCGAATACTGTATCAATTCTGGCTCGGAATCTACTAGATTTTATAGAAATTACAGACAAAAACTCTCTTTTTTTAATTCCGAAACTGATCTAAAGCTGCTCGCTGTACTGCACTATGCACTCTCTCACCTCCCTTTATATTTGACCACCGCCCCTCTCCACCAAGCGCATCCACCTCGACCTCCATCCCTAGCGCTCTCGCCCCAAAGCAC (double strand) [ZmABI4 upstream fragment 675 bp (-778 to -104)]
- binding result: binds

For at least one entry, the source does not settle the construct or the ends of the probe.
